Data as given in PubChem BioAssay AID1259254 (NCATS, 2017).
Aim: 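Gene knock-downs that lead to re-replication, shown by excess G2 DNA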 (primary screen). Cells: human HCT116 colorectal cancer cells. Reagent: single siRNA against human genes. Time to read-out: 3 days. Read-out: 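Imaged Hoechst DNA stain sorts each cell into a cycle phase by DNA amount; per plate, G2 fraction set to 0% for non-targeting and 100% for GMNN siRNA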. Scale: G2 robust z-score and G2 cells, % of GMNN control: higher = more G2 cells, more excess DNA replication; raw share of cells in G2: higher = larger share of cells with G2 DNA content. Rule for the call: 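An siRNA counts as active if its G2 robust z-score lies at least 5 MADs above the screen median; here such calls match roughly 38% of GMNN control or more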.
The deposit covers about 59,000 reagents; this is a random part of them. About 1,550 of them (2.6%) count as active. 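G2 share is only a proxy for re-replication; each gene was hit by three separate siRNAs, and active genes were retested.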 The raw values are shown without normalisation. The numbers tell different reagents against one gene apart. Reagent sequences are not shown. Not stated in the record: the amount of reagent.

Target gene	reagent	G2 robust z-score	G2 cells, % of GMNN control	raw share of cells in G2 (%)	Outcome
RAB5CP2	1	-1.05	-4.45	0.965	inactive
RAB5CP2	2	1.11	10.8	8.23	inactive
RAB5CP2	3	-0.548	-0.892	2.82	inactive
TMEM80	1	-0.264	1.11	4.05	inactive
TMEM80	2	-0.136	2.01	3.82	inactive
TMEM80	3	-0.123	2.1	3.91	inactive
SUPT16H	1	6.07	45.7	19.4	active
SUPT16H	2	-0.806	-2.71	2.94	inactive
SUPT16H	3	0.0163	3.08	7.61	inactive
ALG5	1	-0.207	1.51	6.85	inactive
ALG5	2	1.09	10.6	7.71	inactive
ALG5	3	0.708	7.95	6.59	inactive
TMEM42	1	-0.212	1.48	4.73	inactive
TMEM42	2	0.868	9.08	5.98	inactive
TMEM42	3	0.316	5.19	4.46	inactive
AMN	1	-0.548	-0.89	3.81	inactive
AMN	2	0.871	9.1	6.15	inactive
AMN	3	-0.163	1.82	2.96	inactive
DLGAP2	1	-0.0507	2.61	5.64	inactive
DLGAP2	2	0.333	5.31	7.13	inactive
DLGAP2	3	0.766	8.36	8.33	inactive
DLGAP2	4	1.25	11.7	8.15	inactive
DLGAP2	5	-0.021	2.82	4.49	inactive
DLGAP2	6	-0.487	-0.456	2.96	inactive
ADAMTS15	1	0.159	4.08	7.32	inactive
ADAMTS15	2	3.55	28	13.7	inactive
ADAMTS15	3	-0.319	0.726	4.53	inactive
TOMM7	1	0.667	7.66	6.35	inactive
TOMM7	2	1.49	13.5	9.95	inactive
TOMM7	3	-0.967	-3.84	1.92	inactive
USP54	1	1.22	11.5	6.41	inactive
USP54	2	0.777	8.43	6.62	inactive
USP54	3	0.491	6.42	5.11	inactive
OPRPN	1	-0.0583	2.56	5.35	inactive
OPRPN	2	2.63	21.5	14.7	inactive
OPRPN	3	2.82	22.8	10.3	inactive
MCC	1	1.07	10.5	9.44	inactive
MCC	2	-0.371	0.354	4.36	inactive
MCC	3	-0.445	-0.161	3.3	inactive
FKBP5	1	1.94	16.6	11.3	inactive
FKBP5	2	-0.977	-3.91	3.78	inactive
FKBP5	3	-0.763	-2.4	2.8	inactive
ABAT	1	-0.472	-0.357	5.48	inactive
ABAT	2	-0.287	0.945	5.53	inactive
ABAT	3	0.399	5.77	5.53	inactive
UBR7	1	3.76	29.4	15.8	inactive
UBR7	2	1.71	15	10.4	inactive
UBR7	3	0.202	4.39	4.54	inactive

A few values from the entries so far:
For “Outcome”, DLGAP2 #3 has inactive
Under “Outcome”, SUPT16H #1 shows active
UBR7 #1, Outcome → inactive
Value for TMEM80 #3 under “raw share of cells in G2 (%)”: 3.91
